Results are given in words; binding and its absence hold for the method and conditions named. Binding seen in cells or lysates may run through a third protein. Some results given as binding are weak or reduced against the parent protein; the word gives no strength.
How the values were obtained:
p62-GFP wild-type (WT) = p62-GFP wild-type (WT) (UniProt Q13501); test: co-IP
[1] = molecular target: NF-κB subunit p65 (RelA), endogenous (human (endogenous in HEK293T, A549, U2-OS, THP1)) (UniProt Q04206); test: co-IP
[2] = molecular target: NF-κB subunit p65 (RelA), endogenous (human (endogenous in HEK293T, A549, U2-OS, THP1)) (UniProt Q04206); test: co-IP; remark: listed apart in the source
[3] = molecular target: NF-κB subunit p65 (RelA), endogenous (human (endogenous in HEK293T, A549, U2-OS, THP1)) (UniProt Q04206); test: proximity ligation

Sequences of proteins named here, by UniProt entry; tags and fusion partners are left off.
UniProt Q04206: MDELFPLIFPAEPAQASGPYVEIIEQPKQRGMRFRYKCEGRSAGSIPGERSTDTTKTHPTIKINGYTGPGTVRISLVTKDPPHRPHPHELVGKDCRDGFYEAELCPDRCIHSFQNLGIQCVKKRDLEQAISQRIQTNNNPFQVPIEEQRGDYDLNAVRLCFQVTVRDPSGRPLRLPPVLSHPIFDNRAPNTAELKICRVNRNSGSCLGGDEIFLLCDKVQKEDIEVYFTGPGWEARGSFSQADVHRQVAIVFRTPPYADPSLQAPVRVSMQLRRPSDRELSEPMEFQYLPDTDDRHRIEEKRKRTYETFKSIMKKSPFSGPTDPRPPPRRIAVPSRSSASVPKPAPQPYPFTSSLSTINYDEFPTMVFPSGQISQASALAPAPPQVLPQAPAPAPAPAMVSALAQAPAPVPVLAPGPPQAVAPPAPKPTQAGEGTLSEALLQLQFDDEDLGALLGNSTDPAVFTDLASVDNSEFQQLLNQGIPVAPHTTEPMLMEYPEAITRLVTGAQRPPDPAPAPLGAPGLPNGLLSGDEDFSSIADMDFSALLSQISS

binding (p62-GFP wild-type (WT)) | binding [1] | binding [2] | binding [3] | Substance
binds | – | – | – | NF-κB subunit p65 (RelA), endogenous (from UniProt Q04206 1-551)
– | binds | binds | binds | p62 / sequestosome 1 (SQSTM1), endogenous (from UniProt Q13501 1-440)

Reference: publication doi:10.1101/2022.11.02.514846
